Whole data set: some 33,000 sequences, median “E-score (-0.5 to 0.5)” near -0.016, cut for the highest 2% near 0.3. Some of the results follow.
Molecular target: T1, Yer184c (UniProt P39961)
T1 sequence: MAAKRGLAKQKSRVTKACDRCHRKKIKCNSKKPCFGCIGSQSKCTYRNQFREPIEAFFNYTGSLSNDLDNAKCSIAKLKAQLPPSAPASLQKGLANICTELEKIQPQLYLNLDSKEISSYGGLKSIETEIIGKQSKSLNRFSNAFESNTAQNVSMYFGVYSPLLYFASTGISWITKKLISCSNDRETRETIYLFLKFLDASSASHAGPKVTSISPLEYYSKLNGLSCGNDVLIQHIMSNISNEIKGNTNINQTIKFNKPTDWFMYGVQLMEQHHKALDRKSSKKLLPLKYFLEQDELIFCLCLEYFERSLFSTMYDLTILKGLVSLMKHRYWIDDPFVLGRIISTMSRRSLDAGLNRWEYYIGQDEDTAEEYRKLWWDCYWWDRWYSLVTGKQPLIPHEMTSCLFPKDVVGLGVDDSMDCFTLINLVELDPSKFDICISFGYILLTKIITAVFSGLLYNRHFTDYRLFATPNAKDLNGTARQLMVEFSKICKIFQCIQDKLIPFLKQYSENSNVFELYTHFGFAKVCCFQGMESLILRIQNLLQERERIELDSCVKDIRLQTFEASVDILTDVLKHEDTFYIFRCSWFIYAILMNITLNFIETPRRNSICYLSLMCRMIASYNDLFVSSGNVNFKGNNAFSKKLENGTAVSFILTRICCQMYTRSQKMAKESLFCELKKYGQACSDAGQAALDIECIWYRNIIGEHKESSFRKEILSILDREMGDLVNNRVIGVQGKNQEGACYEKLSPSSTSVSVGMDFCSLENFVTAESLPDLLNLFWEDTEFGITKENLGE
Assay: PBM E-score (8-mer binding enrichment) (E-score (-0.5 to 0.5)); higher = stronger / more preferred TF binding
Settings: protein concentration: 100 nM; construct: GST-full length
Method in brief: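 GST-tagged yeast TFs (full-length or DNA-binding domain) were made by PURExpress in vitro transcription/translation and applied at about 100-200 nM to universal all-10-mer Agilent arrays. The arrays were made double-stranded by primer extension, on fresh or once-stripped slides. Bound protein was detected with fluorescent anti-GST, and scans were normalised with masliner. Each ungapped eight-base word, pooled with its reverse complement, received an E-score (modified Wilcoxon-Mann-Whitney statistic) from the Universal PBM Analysis Suite.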

Row | Sequence | PBM E-score
1 | CATCATAC | 0.224
2 | GACTGAGC | -0.166
3 | ATTATCGA | 0.0479
4 | GGGGTCGA | -0.22
5 | ATATCGAG | 0.0115
6 | ACGAAGCA | -0.13
7 | AATGCTCT | -0.167
8 | CCCTCCTA | -0.122
9 | GCAAATAC | -0.0215
10 | GAGGGTCA | -0.132
11 | GTACATGA | -0.0374
12 | CTGGCATA | -0.00554
13 | TCTAGTCA | -0.0786
14 | CACCACGC | -0.284
15 | CAACGAGG | -0.116
16 | CATAAGCC | -0.0497
17 | CCGCGGTA | 0.345
18 | CAACGAGA | 0.0677
19 | GCTCTTAC | 0.0833
20 | TGCTCAAA | 0.0714
21 | CAATATTG | 0.178
22 | AGATTCAA | 0.137
23 | CGGGGCCC | 0.0621
24 | AATTGTCA | 0.0273
25 | ACCGATTG | 0.191

Row | Sequence | PBM E-score
26 | TAGACAGA | 0.063
27 | AACATGCT | -0.045
28 | GTAACGAA | 0.123
29 | CCCATACG | -0.26
30 | CGTATGCA | 0.00517
31 | CAGCCAGA | -0.0598
32 | GAAAGCTC | -0.0804
33 | AAAAGAGT | -0.0099
34 | AGAGAGGC | -0.282
35 | CTTGATCC | -0.0455
36 | AAATGGTA | 0.0972
37 | AAAATGCC | 0.161
38 | CCTTAGAA | -0.0538
39 | GTTCACAA | 0.144
40 | ACTGATAC | -0.0357
41 | CGGAAGGA | 0.23
42 | ATTGACAC | -0.158
43 | GCTCGCCC | -0.103
44 | AAATCTGC | -0.0007
45 | ATGGTTCA | 0.0406
46 | CTAGCATA | -0.00397
47 | GATAACTA | 0.0562
48 | AACCCGTA | -0.0462
49 | AAGGAGTC | -0.165
50 | CTGAGCGC | -0.0621

Row | Sequence | PBM E-score
51 | CGTCCGGC | 0.296
52 | CCGGTTCA | 0.0944
53 | AAACCGGT | 0.216
54 | GCGGTCCA | -0.116
55 | GAGGTCAA | -0.117
56 | ATCCAACC | -0.124
57 | GAAGAGGC | -0.0568
58 | AGCGTAGG | -0.167
59 | GCTGAGAC | 0.127
60 | CGAGCTAA | 0.0895
61 | AGGCCTAT | -0.0243
62 | GCTAATGA | -0.11
63 | GATGCAAA | -0.00873
64 | GGCGTGAC | 0.058
65 | GATGCCGA | 0.319
66 | AACATCCT | -0.0642
67 | GCTGGAGA | -0.2
68 | AGACGGCT | 0.0132
69 | GCCGGGTA | 0.107
70 | ACACTTGC | -0.0473
71 | GTATAACA | 0.166
72 | ATACTCAG | 0.145
73 | CCATGATA | -0.088
74 | AGAGACCT | -0.186
75 | ACATAAGC | -0.0118

Row | Sequence | PBM E-score
76 | GTGCACCA | -0.0592
77 | CATCTAGA | 0.0183
78 | TGTTAACA | 0.111
79 | ACTTTTAG | 0.05
80 | GCTAGGAC | -0.0463
81 | TCCCTCAA | -0.1
82 | GATTCGGA | 0.329
83 | ACGTGTCG | -0.125
84 | CATTGGCC | -0.161
85 | ATGGTCGC | -0.0296
86 | GGATATAA | 0.29
87 | CCTACCCA | -0.257
88 | GCTGCGAA | 0.0893
89 | CGACACAA | -0.11
90 | ACACAGCC | 0.045
91 | GGTTCTTA | -0.0176
92 | AGATCACT | 0.0556
93 | CAGATAGC | -0.105
94 | GGCCGGGA | 0.292
95 | TACGTCTA | -0.127
96 | AGGTCGTC | -0.136
97 | AATCACAT | -0.0341
98 | AAGTACTT | -0.0298
99 | GCCTCGGA | 0.108
100 | ACACACAT | 0.0928

Some of the entries above in another layout:
Row	Sequence	PBM E-score
44	AAATCTGC	-0.0007
45	ATGGTTCA	0.0406
46	CTAGCATA	-0.00397
47	GATAACTA	0.0562
48	AACCCGTA	-0.0462
49	AAGGAGTC	-0.165
50	CTGAGCGC	-0.0621
51	CGTCCGGC	0.296
52	CCGGTTCA	0.0944
53	AAACCGGT	0.216
54	GCGGTCCA	-0.116
56	ATCCAACC	-0.124
58	AGCGTAGG	-0.167
59	GCTGAGAC	0.127
60	CGAGCTAA	0.0895
61	AGGCCTAT	-0.0243
62	GCTAATGA	-0.11
63	GATGCAAA	-0.00873
64	GGCGTGAC	0.058
65	GATGCCGA	0.319
66	AACATCCT	-0.0642
67	GCTGGAGA	-0.2
68	AGACGGCT	0.0132
69	GCCGGGTA	0.107
70	ACACTTGC	-0.0473
71	GTATAACA	0.166
72	ATACTCAG	0.145
73	CCATGATA	-0.088
74	AGAGACCT	-0.186
76	GTGCACCA	-0.0592
77	CATCTAGA	0.0183
78	TGTTAACA	0.111
79	ACTTTTAG	0.05
80	GCTAGGAC	-0.0463
81	TCCCTCAA	-0.1
82	GATTCGGA	0.329
83	ACGTGTCG	-0.125
84	CATTGGCC	-0.161
85	ATGGTCGC	-0.0296
86	GGATATAA	0.29
87	CCTACCCA	-0.257
88	GCTGCGAA	0.0893
89	CGACACAA	-0.11
90	ACACAGCC	0.045
91	GGTTCTTA	-0.0176
92	AGATCACT	0.0556
93	CAGATAGC	-0.105
94	GGCCGGGA	0.292
95	TACGTCTA	-0.127
96	AGGTCGTC	-0.136
97	AATCACAT	-0.0341
98	AAGTACTT	-0.0298
99	GCCTCGGA	0.108
100	ACACACAT	0.0928

(further entries)

Row | Sequence | PBM E-score
101 | GACTCTCA | -0.182
102 | CAGTTGAG | -0.238
103 | CCAGACTC | -0.146
104 | GTATGGTA | -0.0442
105 | TATAGTCA | 0.0719
106 | AAGCTGAG | 0.0292
107 | CTAAGAGA | -0.0544
108 | CGAGAACC | 0.158
109 | CCCCTAGG | -0.349
110 | GAGAGCAC | -0.14
111 | GACAGTAC | 0.135
112 | GCAGAAAC | 0.172
113 | AGATCGCG | 0.07
114 | AAGTTACG | 0.0648
115 | ACTAAAAG | 0.139
116 | GACACGCA | 0.0313
117 | GCTAGATA | 0.00682
118 | CACCACTA | -0.0564
119 | GTAGATAC | 0.043
120 | CAGGACCC | -0.164
121 | CGCAGTGA | -0.0244
122 | ATTGTAAC | 0.101
123 | CCAGGACG | -0.121
124 | GCAGGTCC | -0.0921
125 | CCACGAAC | 0.0982

3 entries picked at random from those above:
Row | Sequence | PBM E-score
106 | AAGCTGAG | 0.0292
120 | CAGGACCC | -0.164
112 | GCAGAAAC | 0.172

The list continues.

Row | Sequence | PBM E-score
126 | ACATGACG | -0.118
127 | GAATCTAC | 0.0543
128 | CTTAGTTC | 0.125
129 | ACCGTTCT | -0.0197
130 | AAGACGGC | 0.0294
131 | GAGTGCAA | 0.0952
132 | TCAAAGGA | -0.113
133 | ACCACAGT | 0.00697
134 | CGCAATGC | -0.0706
135 | ATGTTATG | 0.0758
136 | ATTCACAG | 0.12
137 | ATGAGAGG | -0.341
138 | AGCCCGTA | -0.276
139 | ACGAAGAA | 0.258
140 | AGAGCTTG | -0.122
141 | GTACGATA | -0.122
142 | GCCACTCC | -0.0873
143 | AACGTTTA | -0.0445
144 | ACGCCGGA | 0.227
145 | ACGGAATA | 0.321
146 | CCCGTCGC | -0.117
147 | AAACACCC | 0.0378
148 | CAAAATTA | 0.212
149 | CCCCAAGG | -0.381
150 | CTGCTTCA | -0.155

Row | Sequence | PBM E-score
151 | CGTCATAA | 0.0537
152 | AAACATGT | 0.17
153 | CCAACTGA | -0.105
154 | AAATCCAC | -0.0363
155 | GTTGCACA | 0.0652
156 | ATTTTTTC | 0.256
157 | ATATACTG | 0.174
158 | AGGCAAGC | -0.227
159 | CCAAGTAG | -0.15
160 | CCTGGTCG | -0.0872
161 | CGTCCCTA | -0.11
162 | CTGGCTGC | -0.198
163 | CATGATAC | 0.176
164 | CGAGATTC | 0.0732
165 | CGAATGAA | 0.0657
166 | CTTTTGCC | 0.028
167 | ATTTCCTG | 0.186
168 | GAGACCCC | -0.26
169 | GGACAGCA | 0.115
170 | AGGGGGGG | -0.474
171 | AGACTTTG | -0.0649
172 | ACTGCTAG | -0.186

— the supplement of paper PMC3334620
